{"sequences": {"note": "Amino acid sequences for entries named in this document (tags omitted). A change or cut given only in a name is not applied to a line headed by its entry.", "UniProt P18054": "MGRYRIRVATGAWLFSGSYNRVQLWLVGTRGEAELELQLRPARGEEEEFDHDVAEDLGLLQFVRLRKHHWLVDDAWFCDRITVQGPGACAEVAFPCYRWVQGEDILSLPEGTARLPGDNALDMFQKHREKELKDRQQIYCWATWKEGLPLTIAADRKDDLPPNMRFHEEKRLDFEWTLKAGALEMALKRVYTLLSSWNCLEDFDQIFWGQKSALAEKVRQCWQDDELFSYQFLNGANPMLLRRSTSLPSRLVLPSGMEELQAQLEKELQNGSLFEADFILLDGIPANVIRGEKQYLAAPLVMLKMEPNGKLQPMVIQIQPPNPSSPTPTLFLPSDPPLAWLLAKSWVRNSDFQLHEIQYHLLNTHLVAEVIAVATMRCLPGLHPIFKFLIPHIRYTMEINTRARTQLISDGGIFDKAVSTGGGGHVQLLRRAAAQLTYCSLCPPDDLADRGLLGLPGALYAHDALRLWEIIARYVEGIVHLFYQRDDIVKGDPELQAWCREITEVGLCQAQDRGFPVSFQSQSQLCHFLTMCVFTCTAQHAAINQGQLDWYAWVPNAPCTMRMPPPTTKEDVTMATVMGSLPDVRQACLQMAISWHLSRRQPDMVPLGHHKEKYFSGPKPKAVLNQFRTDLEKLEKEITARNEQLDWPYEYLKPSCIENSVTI"}, "source": "PubChem BioAssay AID1671190", "about": "(National Center for Advancing Translational Sciences (NCATS), 2021)", "note": "Out of some 580,000 compounds screened, about 6,100 (1.1%) were called active. The inconclusive results got no clear call from the source; some entries with a clear call stand among them for comparison. Calls follow the shape of the dose curve; as a rule, active = well fitted inhibition curve with a large enough effect; inconclusive = small, poorly fitted or top-dose-only effect, or another doubt; inactive = no such curve, though single readings can be large or run the other way. A potency beside an inconclusive call is a rough fit, not a confirmed value. % is scaled to controls: 0 for no effect and ±100 for the full control effect; potency is read from the fitted curve at half-maximal effect.", "data": [{"target": "Polyunsaturated fatty acid lipoxygenase ALOX12 (Homo sapiens) (UniProt P18054)", "experiment": "Primary qHTS assay for inhibitors of human arachidonate 12S-lipoxygenase (ALOX12): Round 2", "conditions": "purified 12hLO, xylenol orange hydroperoxide absorbance; activity change, negative = inhibition: at 108 µM (top of the series) unless noted", "in_short": "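Purified human 12hLO (150 nM final) in 25 mM Hepes, 0.01% Triton X-100, pH 7.0 was preincubated 15 min at room temperature with compound. Then 40 uM arachidonic acid was added, 30 min. Hydroperoxide was read by Fe-XO absorbance ratio 573/405 nm.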", "values": [{"smiles": "O=C(O)c1cc(Cl)c(Cl)[nH]1", "Potency": "inconclusive: 22.4 µM [inhibitor, partial curve]"}, {"smiles": "Cc1csc(NC(=O)C(Cc2ccccc2)n2cccc2)n1", "note": "(stereo not given)", "activity change, negative = inhibition": "inactive: -17% [at 57.4 µM]"}, {"smiles": "O=C(CSc1nnc(Cc2ccccc2)o1)Nc1ccc(N2CCOCC2)cc1", "Potency": "inconclusive: 126 µM [inhibitor, single point]"}, {"smiles": "COc1ccc(-c2nnc(SC(=O)N3c4ccccc4Sc4ccccc43)o2)cc1", "Potency": "active: 8.91 µM"}, {"smiles": "CC(=O)Nc1ccc(S(=O)(=O)N2CCC(C(=O)NCCc3ccc(Cl)cc3)CC2)cc1", "activity change, negative = inhibition": "inactive: 0%"}, {"smiles": "CCOC(=O)c1c(C)[nH]c(C(=O)CSc2nnc(C3CC3)n2N)c1C", "Potency": "inconclusive: 0.282 µM [inhibitor, full curve, poor fit]"}, {"smiles": "CCOC(=O)/C=c1\\s/c(=C\\c2ccc(C#N)cc2)c(=O)n1CC(=O)NCc1ccco1", "activity change, negative = inhibition": "inactive: -14.5%"}, {"smiles": "O=C(CNC(=O)c1ccccc1F)Nc1ccc(Cl)c(S(=O)(=O)N2CCCCC2)c1", "activity change, negative = inhibition": "inactive: -0.0578%"}, {"smiles": "CCCn1nc(C(=O)Nc2nc(-c3ccccn3)cs2)c2ccccc2c1=O", "Potency": "inactive"}, {"smiles": "Cc1cc(NC2CCCCC2)nc(NCc2ccccc2)n1", "Potency": "inconclusive: 70.8 µM [inhibitor, partial curve, poor fit]"}, {"smiles": "O=C(COC(=O)COc1ccc(Cl)cc1Br)NCc1cccs1", "Potency": "inconclusive: 141 µM [inhibitor, partial curve, poor fit]"}, {"smiles": "COC[C@@H]1CCCN1Cc1cc2ccc(C)cc2nc1-c1ccc(OC)cc1", "activity change, negative = inhibition": "inactive: 25.7%"}, {"smiles": "Cc1ccc2nc(/C(C#N)=C/c3ccc(-c4cccc(Cl)c4)o3)[nH]c2c1", "Potency": "inactive"}, {"smiles": "CC1=C(n2nnc3ccccc32)C(c2ccccc2)C(C#N)=C(N)O1", "note": "(stereo not given)", "Potency": "inconclusive: 7.94 µM [inhibitor, full curve, poor fit]"}, {"smiles": "O=C(O)c1ccc(S(=O)(=O)N2CCC3(CC2)CC(=O)c2ccccc2O3)cc1", "activity change, negative = inhibition": "inactive: -1.33%"}, {"smiles": "CCCCCSc1nc2c(c(=O)[nH]c(=O)n2C)n1Cc1cccc(Br)c1", "Potency": "inconclusive: 44.7 µM [inhibitor, partial curve, poor fit]"}, {"smiles": "CCOc1ccc(NS(=O)(=O)c2ccc(C(=O)N(C)Cc3cccc(OC)c3OC)cc2)cc1", "Potency": "inconclusive: 112 µM [inhibitor, single point]"}, {"smiles": "CC(=O)C1=C(O)C(=CC=Cc2ccccc2)OC1=O", "Potency": "active: 15.8 µM"}, {"smiles": "CCOc1ccc(S(=O)(=O)NCCC(=O)N2CCN(c3ccc(OC)cc3)CC2)cc1", "Potency": "inconclusive: 100 µM [inhibitor, partial curve, poor fit]"}, {"smiles": "Cc1cc(C)c(CN2CCN(C(=O)Cn3cnc(C(=O)Nc4ccc(C)c(C)c4)n3)CC2)c(C)c1", "Potency": "inconclusive: 89.1 µM [inhibitor, single point]"}]}]}
